# From the supplement of paper PMC11732987, “Enantioselective OTUD7B fragment discovery through chemoproteomics screening and high-throughput optimisation” (Communications Chemistry, 2025)
# The chains behind the UniProt entries cited, without tags or fusion partners. Where a name states a change or a piece, a line headed by the entry shows the natural chain unless it says otherwise. Residues count along the entry.
# UniProt Q9NP77: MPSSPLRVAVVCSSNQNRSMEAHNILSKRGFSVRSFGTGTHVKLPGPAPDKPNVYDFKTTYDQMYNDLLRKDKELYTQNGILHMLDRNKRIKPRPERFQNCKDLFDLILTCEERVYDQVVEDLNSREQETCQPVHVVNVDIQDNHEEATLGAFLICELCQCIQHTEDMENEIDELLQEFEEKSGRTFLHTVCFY
# UniProt Q76I76, 793-818: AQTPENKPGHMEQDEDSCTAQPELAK
# UniProt Q9Y5M8: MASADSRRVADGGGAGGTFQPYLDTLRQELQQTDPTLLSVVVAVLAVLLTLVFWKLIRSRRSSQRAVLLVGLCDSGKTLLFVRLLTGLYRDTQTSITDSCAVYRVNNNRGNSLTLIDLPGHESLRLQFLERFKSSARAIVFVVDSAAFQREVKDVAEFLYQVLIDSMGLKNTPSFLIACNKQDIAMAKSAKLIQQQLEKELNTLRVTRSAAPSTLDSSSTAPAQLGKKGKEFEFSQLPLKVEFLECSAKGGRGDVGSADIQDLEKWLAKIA
# UniProt O15269: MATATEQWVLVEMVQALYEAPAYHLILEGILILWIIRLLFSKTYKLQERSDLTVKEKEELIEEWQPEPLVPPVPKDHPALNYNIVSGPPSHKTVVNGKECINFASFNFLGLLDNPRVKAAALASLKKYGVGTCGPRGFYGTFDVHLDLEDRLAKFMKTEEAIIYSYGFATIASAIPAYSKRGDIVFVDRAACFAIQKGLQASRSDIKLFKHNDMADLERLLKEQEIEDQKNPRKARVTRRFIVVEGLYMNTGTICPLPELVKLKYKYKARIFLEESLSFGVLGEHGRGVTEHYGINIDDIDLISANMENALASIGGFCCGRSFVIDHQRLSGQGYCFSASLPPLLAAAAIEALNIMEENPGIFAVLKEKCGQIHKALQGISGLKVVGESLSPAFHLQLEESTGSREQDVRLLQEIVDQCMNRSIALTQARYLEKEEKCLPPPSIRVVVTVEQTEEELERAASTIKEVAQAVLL
# UniProt Q8WXH0, 2250-2270: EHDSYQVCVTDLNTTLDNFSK
# UniProt Q9BVQ7: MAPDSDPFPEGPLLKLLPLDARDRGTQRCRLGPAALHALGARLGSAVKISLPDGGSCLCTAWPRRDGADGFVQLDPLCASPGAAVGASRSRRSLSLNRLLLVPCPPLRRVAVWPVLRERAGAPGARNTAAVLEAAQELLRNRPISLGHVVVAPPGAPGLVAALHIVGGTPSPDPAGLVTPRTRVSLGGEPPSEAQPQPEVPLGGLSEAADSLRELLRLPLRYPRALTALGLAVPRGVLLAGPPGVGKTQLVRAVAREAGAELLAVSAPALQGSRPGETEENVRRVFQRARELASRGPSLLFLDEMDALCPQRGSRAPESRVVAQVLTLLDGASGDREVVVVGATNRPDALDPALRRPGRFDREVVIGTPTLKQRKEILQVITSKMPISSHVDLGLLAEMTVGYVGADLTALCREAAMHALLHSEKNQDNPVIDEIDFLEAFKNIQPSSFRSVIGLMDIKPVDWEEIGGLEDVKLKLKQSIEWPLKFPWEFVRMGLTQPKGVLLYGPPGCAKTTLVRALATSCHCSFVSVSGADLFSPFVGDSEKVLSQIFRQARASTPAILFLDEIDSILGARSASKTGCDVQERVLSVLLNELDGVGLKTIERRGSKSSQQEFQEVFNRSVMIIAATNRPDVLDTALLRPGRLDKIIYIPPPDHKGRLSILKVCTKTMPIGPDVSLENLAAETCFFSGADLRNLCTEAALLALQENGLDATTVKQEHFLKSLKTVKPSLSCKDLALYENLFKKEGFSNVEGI
# UniProt Q6ZRS2, 260-281: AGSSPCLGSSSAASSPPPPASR
# UniProt Q9BUA3, 49-68: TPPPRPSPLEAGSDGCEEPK
# UniProt Q9P2R7: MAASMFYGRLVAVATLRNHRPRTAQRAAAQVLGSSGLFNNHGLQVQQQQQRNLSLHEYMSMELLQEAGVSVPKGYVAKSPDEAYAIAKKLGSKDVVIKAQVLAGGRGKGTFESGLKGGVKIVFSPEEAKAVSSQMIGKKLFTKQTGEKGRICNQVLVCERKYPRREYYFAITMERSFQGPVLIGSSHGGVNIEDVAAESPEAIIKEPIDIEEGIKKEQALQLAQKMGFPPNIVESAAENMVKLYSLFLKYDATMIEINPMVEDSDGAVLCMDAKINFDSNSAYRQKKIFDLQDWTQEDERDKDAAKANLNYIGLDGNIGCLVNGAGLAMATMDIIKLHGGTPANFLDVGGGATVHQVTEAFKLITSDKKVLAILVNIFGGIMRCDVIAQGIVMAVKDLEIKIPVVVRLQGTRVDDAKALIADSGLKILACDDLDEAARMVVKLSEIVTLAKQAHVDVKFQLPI
# UniProt Q96T58, 1065-1087: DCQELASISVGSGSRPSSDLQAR
# UniProt Q9P289: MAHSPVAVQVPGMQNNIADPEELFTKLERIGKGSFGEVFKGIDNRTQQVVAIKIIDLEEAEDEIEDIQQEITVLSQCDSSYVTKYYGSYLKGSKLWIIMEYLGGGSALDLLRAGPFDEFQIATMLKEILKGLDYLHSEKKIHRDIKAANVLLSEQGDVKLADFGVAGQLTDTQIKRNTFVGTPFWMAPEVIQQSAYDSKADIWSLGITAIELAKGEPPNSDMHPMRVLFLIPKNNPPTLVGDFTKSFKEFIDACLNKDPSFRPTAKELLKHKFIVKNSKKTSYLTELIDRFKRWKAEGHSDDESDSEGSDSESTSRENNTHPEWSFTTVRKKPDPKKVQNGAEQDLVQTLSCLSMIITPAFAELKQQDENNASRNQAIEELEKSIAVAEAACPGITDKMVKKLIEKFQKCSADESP
# UniProt Q69YQ0, 77-97: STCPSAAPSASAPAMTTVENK
# UniProt O43815, 650-669: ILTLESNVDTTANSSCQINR
# UniProt P08240, 353-373: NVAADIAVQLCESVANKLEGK
# UniProt Q9P246, whole entry, looked up: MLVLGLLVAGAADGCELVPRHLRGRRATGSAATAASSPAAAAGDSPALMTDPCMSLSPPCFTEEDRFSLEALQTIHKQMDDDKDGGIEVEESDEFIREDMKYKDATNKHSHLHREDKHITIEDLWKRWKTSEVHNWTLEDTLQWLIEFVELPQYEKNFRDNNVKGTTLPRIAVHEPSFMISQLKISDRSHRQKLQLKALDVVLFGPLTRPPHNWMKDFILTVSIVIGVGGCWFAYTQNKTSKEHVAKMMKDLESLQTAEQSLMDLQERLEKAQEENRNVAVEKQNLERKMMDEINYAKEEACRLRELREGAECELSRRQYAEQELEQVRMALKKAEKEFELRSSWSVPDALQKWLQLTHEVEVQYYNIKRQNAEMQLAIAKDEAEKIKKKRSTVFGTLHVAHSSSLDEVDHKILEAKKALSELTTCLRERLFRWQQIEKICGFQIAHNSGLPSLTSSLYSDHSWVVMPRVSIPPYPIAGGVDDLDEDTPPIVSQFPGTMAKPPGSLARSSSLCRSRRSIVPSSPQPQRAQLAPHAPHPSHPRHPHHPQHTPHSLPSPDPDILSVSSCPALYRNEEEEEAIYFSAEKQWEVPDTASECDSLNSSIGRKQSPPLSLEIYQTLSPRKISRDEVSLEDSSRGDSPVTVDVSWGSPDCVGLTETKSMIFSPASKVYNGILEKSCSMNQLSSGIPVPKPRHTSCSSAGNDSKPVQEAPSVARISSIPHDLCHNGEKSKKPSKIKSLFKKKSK
# UniProt Q9UMX1: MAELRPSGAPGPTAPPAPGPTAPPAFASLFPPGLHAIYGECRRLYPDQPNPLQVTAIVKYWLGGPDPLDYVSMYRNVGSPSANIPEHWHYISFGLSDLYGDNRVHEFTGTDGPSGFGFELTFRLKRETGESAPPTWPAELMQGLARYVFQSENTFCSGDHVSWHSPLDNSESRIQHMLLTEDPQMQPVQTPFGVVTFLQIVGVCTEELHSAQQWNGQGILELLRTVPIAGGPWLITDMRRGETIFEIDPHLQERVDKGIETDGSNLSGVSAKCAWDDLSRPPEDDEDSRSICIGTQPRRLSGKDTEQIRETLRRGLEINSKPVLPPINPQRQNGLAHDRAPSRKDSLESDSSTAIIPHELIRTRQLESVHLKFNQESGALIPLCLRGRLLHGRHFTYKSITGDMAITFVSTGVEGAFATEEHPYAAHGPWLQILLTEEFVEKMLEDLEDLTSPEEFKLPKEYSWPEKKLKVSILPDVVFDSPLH
# UniProt Q96JI7: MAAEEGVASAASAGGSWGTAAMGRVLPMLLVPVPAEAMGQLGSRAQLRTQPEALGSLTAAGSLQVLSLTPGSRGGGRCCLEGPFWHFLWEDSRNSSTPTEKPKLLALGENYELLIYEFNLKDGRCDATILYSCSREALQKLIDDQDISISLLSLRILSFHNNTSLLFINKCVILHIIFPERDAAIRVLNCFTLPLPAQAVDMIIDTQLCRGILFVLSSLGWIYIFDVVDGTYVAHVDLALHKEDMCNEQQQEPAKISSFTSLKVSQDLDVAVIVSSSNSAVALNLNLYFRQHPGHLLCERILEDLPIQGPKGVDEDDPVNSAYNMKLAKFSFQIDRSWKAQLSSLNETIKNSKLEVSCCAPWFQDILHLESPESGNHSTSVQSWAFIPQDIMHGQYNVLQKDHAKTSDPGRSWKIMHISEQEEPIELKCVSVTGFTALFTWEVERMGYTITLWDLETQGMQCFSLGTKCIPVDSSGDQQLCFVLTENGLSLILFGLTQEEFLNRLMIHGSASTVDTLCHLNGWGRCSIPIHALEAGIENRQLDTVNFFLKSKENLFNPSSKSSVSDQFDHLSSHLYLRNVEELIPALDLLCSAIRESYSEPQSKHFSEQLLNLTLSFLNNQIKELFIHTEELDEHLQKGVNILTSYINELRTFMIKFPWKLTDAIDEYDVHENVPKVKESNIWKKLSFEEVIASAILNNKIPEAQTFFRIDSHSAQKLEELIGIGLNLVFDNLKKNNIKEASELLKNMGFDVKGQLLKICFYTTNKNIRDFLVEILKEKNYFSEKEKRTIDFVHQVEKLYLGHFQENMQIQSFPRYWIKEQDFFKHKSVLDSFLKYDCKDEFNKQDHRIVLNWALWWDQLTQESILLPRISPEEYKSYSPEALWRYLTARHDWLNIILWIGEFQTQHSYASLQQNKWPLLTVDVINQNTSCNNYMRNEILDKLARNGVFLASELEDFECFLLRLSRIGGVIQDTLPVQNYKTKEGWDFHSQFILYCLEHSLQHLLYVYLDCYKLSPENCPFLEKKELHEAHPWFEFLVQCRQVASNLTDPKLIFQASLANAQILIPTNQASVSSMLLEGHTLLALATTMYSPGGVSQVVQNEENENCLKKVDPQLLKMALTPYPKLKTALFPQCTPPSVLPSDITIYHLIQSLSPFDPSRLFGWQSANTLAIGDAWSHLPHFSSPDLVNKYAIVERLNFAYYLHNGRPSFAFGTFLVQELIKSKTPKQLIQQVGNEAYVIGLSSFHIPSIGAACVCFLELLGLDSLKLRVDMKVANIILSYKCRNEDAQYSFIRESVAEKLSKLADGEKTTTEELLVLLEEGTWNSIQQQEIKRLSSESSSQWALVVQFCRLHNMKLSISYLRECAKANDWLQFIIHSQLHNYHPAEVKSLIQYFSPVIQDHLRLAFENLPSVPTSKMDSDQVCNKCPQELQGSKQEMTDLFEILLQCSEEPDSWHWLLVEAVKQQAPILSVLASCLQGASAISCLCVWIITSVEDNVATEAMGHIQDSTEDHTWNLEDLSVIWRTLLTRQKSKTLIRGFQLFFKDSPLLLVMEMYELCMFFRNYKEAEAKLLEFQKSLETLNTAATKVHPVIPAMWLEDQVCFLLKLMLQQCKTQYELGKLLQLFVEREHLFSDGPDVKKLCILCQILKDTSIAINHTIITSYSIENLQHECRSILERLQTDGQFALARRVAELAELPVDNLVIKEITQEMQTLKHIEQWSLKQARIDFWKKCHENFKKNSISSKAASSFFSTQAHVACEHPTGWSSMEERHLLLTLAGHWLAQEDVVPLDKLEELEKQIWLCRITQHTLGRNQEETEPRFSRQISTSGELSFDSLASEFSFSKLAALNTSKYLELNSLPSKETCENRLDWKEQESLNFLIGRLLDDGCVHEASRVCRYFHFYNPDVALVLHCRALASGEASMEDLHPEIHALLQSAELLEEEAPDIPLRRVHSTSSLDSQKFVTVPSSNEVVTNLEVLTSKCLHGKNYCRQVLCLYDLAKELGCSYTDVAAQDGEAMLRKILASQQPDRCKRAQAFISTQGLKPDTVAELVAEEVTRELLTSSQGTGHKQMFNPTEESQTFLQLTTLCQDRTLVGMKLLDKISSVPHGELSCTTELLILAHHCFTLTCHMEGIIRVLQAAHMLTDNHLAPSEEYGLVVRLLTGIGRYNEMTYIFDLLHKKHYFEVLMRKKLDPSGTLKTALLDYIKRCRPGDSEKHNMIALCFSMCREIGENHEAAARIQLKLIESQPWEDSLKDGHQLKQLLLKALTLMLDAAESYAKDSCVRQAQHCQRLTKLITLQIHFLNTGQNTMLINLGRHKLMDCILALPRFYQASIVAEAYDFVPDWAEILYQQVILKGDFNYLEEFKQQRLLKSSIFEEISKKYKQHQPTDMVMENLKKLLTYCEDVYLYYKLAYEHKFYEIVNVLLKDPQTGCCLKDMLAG
# UniProt P63165, whole entry, looked up: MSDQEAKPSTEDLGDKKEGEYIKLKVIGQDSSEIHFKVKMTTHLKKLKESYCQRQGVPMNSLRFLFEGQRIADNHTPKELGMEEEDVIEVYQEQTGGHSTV
# The other results are listed elsewhere or left out. The data scatter; read single values as rough.
# Key:
# [1] = compound: ClCC(=O)N[C@@H]1CCCc2ccccc12; assay: log2 mean competition ratio of IA-DTB cysteine labelling (DMSO/compound) (log2 ratio); higher = stronger cysteine engagement by compound; details: treatment time: 4 h, cell line lysate: HEK293T
# Description: (§1)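 IA-DTB competitive cysteine chemoproteomics in HEK293T RIPA lysate. Lysates were treated with compound 29 or 30 at 50 or 200 µM for 4 h, then IA-DTB (500 µM, 1 h), trypsin-digested, NeutrAvidin-enriched and analysed by diaPASEF. Competition ratio = intensity DMSO / intensity compound (n=4 treated, n=64 DMSO); binding: mean log2 CR ≥ 1 and p ≤ 0.05 plus QC filters. Target is the cysteine site.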
# [2] = compound: ClCC(=O)N[C@H]1CCCc2ccccc12; assay: as above; details: treatment time: 4 h, cell line lysate: HEK293T
# Description: as §1
Target,log2 mean competition ratio ([1]; 50 µM),log2 mean competition ratio ([1]; 200 µM),log2 mean competition ratio ([2]; 50 µM),log2 mean competition ratio ([2]; 200 µM)
SSU72 C12 (UniProt Q9NP77),-0.408,0.133,-0.586,0.371
SSH2 C810 (UniProt Q76I76),-0.164,-0.049,-0.22,-0.302
SRRM2 C785 (UniProt Q9UQ35),0.0728,-0.0318,0.231,0.0112
SRPRB C73 (UniProt Q9Y5M8),0.543,0.217,-0.0138,0.162
SPTLC1 C419 (UniProt O15269),-0.263,-0.095,-0.383,-0.0676
SYNE2 C2257 (UniProt Q8WXH0),0.112,-0.206,-0.177,-0.134
SRRT C715 (UniProt Q9BXP5),0.39,0.78,0.297,0.952
STXBP3 C26 (UniProt O00186),-0.0373,-0.0135,-0.1,-0.0392
SPATA5L1 C509 (UniProt Q9BVQ7),0.179,0.0463,0.501,0.0692
SRCAP C265 (UniProt Q6ZRS2),0.0115,0.0698,-0.0497,-0.257
SPINDOC C64 (UniProt Q9BUA3),-0.124,0.215,-1.05,0.09
STXBP3 C546 (UniProt O00186),0.399,-0.132,0.245,-0.189
SUCLA2 C384 (UniProt Q9P2R7),0.32,-0.0308,-0.0268,-0.141
SPTLC2 C425 (UniProt O15270),0.012,-0.23,-0.247,-0.138
SPEN C1066 (UniProt Q96T58),0.106,-0.26,-0.319,-0.111
SRSF11 C455 (UniProt Q05519),-0.174,0.227,-0.167,0.173
SURF6 C19 (UniProt O75683),0.492,-0.158,0.326,-0.19
STXBP2 C365 (UniProt Q15833),-0.339,-0.225,-0.0085,-0.34
SPTLC1 C438 (UniProt O15269),0.266,-0.169,0.717,-0.147
STK26 C392 (UniProt Q9P289),-0.244,-0.158,-0.0185,-0.113
STAG2 C869 (UniProt Q8N3U4),0.13,-0.2,0.0426,-0.233
STK11IP C138 (UniProt Q8N1F8),0.0828,0.505,0.195,0.449
SPECC1L C395 (UniProt Q69YQ0),-0.232,0.0746,-0.0553,-0.102
SUCLA2 C430 (UniProt Q9P2R7),-0.0411,0.137,-0.478,0.127

Target,log2 mean competition ratio ([1]; 50 µM),log2 mean competition ratio ([1]; 200 µM),log2 mean competition ratio ([2]; 50 µM),log2 mean competition ratio ([2]; 200 µM)
SPTBN2 C1966 (UniProt O15020),0.232,-0.133,-0.103,-0.173
SPECC1L C79 (UniProt Q69YQ0),-0.138,-0.0954,0.223,-0.198
STRN C665 (UniProt O43815),-0.646,0.0064,0.221,-0.372
SUGT1 C88 (UniProt Q9Y2Z0),0.255,0.0918,0.921,-0.217
SYNE2 C5212 (UniProt Q8WXH0),-0.095,-0.295,-0.213,-0.117
SPTAN1 C2233 (UniProt Q13813),-0.289,-0.0475,0.14,-0.385
SRPRA C363 (UniProt P08240),-0.393,0.0378,-0.611,-0.211
SRP68 C173 (UniProt Q9UHB9),0.0451,0.214,-0.022,0.208
STEAP3 C140 (UniProt Q658P3),0.197,-0.0508,0.0423,0.171
SYK C259 (UniProt P43405),0.0113,-0.106,0.237,0.0641
SRSF7 C119 (UniProt Q16629),0.228,-0.191,0.193,-0.251
STAU2 C491 (UniProt Q9NUL3),0.2,-0.17,-0.0375,-0.222
STIM2 C426 (UniProt Q9P246),0.125,-0.0327,0.157,-0.236
SYNJ2 C708 (UniProt O15056),-0.222,-0.177,-0.225,-0.165
SUFU C292 (UniProt Q9UMX1),-0.106,-0.0778,0.323,-0.036
STXBP2 C353 (UniProt Q15833),0.389,0.413,-0.164,0.0669
SRGAP2 C1020,0.00513,-0.00535,0.141,-0.024
SPTBN1 C183 (UniProt Q01082),-0.0641,-0.29,0.122,-0.0659
STBD1 C168 (UniProt O95210),-0.137,-0.078,0.23,-0.0978
SUN1 C630 (UniProt O94901),0.00322,-0.192,0.179,-0.157
STK11IP C622 (UniProt Q8N1F8),-0.0383,0.065,-0.142,0.0921
SPG11 C1890 (UniProt Q96JI7),0.272,-0.121,-0.0021,0.0122
SUMO1 C52 (UniProt P63165),0.247,-0.238,0.103,-0.0144
SPATS2L C351 (UniProt Q9NUQ6),0.186,-0.049,-0.331,-0.366

# Taken from the entries so far (3 entries):
Target,log2 mean competition ratio ([1]; 50 µM),log2 mean competition ratio ([1]; 200 µM),log2 mean competition ratio ([2]; 50 µM),log2 mean competition ratio ([2]; 200 µM)
SUCLA2 C430 (UniProt Q9P2R7),-0.0411,0.137,-0.478,0.127
SPTBN2 C1966 (UniProt O15020),0.232,-0.133,-0.103,-0.173
SPECC1L C79 (UniProt Q69YQ0),-0.138,-0.0954,0.223,-0.198
